Assay: Fluorescent emission of amine reporter molecules in phosphate buffer (multiplex suitability)
Assay type: physicochemical
Conditions: 10 μM, 100 mM phosphate buffer pH 7.0

CN(C)CCNC(=O)c1cc(N)cc2c(=O)c3ccccc3[nH]c12 [Compound 18, 2-Amino-N-[2-(dimethylamino)ethyl]-9-oxo-9,10-dihydro-4-acridinecarboxamide]
fluorescent output at Ex/Em 295/370: 0.78 fluorescent units | fluorescent output at Ex/Em 340/510: 12.0 fluorescent units | fluorescent output at Ex/Em 440/540: 347.9 fluorescent units

COC(=O)CCCNS(=O)(=O)c1ccc2cccc(N)c2c1 [Compound 22, Methyl 4-{[(8-amino-2-naphthyl)sulfonyl]amino}butanoate]
fluorescent output at Ex/Em 295/370: 0.0 fluorescent units | fluorescent output at Ex/Em 340/510: 461.8 fluorescent units | fluorescent output at Ex/Em 440/540: 0.75 fluorescent units

Nc1ccc2cn[nH]c2c1 [Compound 23, 6-aminoindazole]
fluorescent output at Ex/Em 295/370: 683.3 fluorescent units | fluorescent output at Ex/Em 340/510: 1.2 fluorescent units | fluorescent output at Ex/Em 440/540: 0.05 fluorescent units
